The record followed here is publication PMC4299599, “Quantification of cytosolic interactions identifies Ede1 oligomers as key organizers of endocytosis” (Molecular Systems Biology, 2014).

Results are given in words; binding and its absence hold for the method and conditions named. Some binding calls cover weakened binding; strength is not graded here.

Assay [1] has as its target T1, End3 (S. cerevisiae) (UniProt P39013).
T1 sequence: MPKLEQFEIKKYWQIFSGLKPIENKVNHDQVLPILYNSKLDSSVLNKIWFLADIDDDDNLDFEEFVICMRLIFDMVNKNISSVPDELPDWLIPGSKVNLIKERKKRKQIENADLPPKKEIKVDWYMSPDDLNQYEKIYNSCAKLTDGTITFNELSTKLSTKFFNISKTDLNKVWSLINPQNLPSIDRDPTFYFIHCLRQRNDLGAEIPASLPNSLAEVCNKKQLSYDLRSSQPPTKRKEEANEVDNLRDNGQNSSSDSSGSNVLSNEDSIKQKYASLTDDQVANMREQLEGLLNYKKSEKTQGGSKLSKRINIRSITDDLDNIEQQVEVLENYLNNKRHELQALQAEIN
Briefly: condition: detection range of FCCS: apparent KD up to ~1 μM; fluorescence cross-correlation spectroscopy (FCCS); self-interaction: living diploid yeast cells with one allele fused to (3)myeGFP and one to (3)mCherry, cytoplasm; apparent (effective) KD, to be taken as the upper limit since complexes of one colour are not seen.

Another assay addresses T2, Ede1 (S. cerevisiae) (UniProt P34216).
T2 sequence: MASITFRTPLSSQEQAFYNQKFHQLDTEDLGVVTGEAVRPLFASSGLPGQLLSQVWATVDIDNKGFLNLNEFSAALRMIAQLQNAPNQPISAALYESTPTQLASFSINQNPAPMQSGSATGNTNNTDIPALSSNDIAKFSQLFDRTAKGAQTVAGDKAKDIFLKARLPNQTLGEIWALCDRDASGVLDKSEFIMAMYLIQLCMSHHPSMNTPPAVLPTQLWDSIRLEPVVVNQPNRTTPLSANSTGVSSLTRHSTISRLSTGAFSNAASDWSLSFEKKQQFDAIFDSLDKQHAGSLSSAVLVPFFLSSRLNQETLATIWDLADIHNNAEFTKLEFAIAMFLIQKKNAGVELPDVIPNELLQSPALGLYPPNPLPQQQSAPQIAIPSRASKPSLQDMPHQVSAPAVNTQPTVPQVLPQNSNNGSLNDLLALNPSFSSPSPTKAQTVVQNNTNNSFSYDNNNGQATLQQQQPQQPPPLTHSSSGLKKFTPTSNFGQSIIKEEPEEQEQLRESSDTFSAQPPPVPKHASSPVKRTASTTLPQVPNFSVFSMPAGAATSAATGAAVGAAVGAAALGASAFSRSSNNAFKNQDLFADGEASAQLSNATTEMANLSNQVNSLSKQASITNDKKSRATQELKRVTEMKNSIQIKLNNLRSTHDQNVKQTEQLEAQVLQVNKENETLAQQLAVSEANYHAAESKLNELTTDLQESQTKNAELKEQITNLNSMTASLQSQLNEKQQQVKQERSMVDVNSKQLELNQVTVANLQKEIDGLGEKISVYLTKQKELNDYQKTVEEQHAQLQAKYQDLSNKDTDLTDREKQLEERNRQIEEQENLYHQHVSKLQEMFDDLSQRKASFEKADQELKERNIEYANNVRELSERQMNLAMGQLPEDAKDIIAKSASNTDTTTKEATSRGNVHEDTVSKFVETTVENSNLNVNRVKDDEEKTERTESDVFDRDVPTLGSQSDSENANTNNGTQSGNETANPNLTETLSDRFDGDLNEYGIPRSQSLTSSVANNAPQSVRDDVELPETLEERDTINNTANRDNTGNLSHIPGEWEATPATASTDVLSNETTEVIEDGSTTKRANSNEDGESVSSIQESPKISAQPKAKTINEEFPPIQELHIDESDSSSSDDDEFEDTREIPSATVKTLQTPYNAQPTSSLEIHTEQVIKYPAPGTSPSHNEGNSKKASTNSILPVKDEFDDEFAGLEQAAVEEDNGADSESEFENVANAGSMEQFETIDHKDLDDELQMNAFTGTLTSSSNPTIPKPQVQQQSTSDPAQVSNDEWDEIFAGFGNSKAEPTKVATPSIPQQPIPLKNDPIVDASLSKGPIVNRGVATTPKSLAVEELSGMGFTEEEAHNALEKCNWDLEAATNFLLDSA
The assay is described as follows: condition: 1000 nM (only Kdeff-values < 1000 nM are shown); fluorescence cross-correlation spectroscopy (FCCS); in the cytoplasm of living yeast cells; first-named protein green (3myeGFP or 1myeGFP; eGFP for Don1), second red (3mCherry); self-interaction in diploid strains with one allele of each colour; apparent or effective KD (Kdeff) from single-cell measurements; only Kdeff values < 1000 nM are shown; values for self-interactions are upper limits.

The target in assay [2] is T1, End3 (S. cerevisiae). Described as above.
The target of the next assay is T3, Rvs167 (S. cerevisiae, UniProt P39743 1-482).
T3 construct: Rvs167, amphiphysin-like protein, S. cerevisiae; also called Rvs167-1myeGFP; source: chromosomally tagged at the endogenous locus, in the cytoplasm of living S. cerevisiae cells; not shown: 1myeGFP, C-terminal, kept
Briefly: fluorescence cross-correlation spectroscopy (FCCS); living yeast cells, observation volume in the cytoplasm; one protein tagged with (3)myeGFP/eGFP and the other with 3mCherry in the same strain; apparent (effective) KD; interactions up to ~1 μM detectable.

Assay [3] concerns the target T4, Rvs161 (S. cerevisiae) (UniProt P25343).
T4 sequence: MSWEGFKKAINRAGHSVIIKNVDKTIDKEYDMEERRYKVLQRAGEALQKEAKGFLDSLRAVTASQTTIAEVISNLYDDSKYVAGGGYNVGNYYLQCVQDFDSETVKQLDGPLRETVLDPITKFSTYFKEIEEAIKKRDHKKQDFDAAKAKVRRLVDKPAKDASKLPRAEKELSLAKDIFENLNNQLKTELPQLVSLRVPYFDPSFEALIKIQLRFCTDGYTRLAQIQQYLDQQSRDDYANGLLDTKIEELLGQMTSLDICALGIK
Briefly: condition: detection range of FCCS: apparent KD up to ~1 μM; fluorescence cross-correlation spectroscopy (FCCS); self-interaction: living diploid yeast cells with one allele fused to (3)myeGFP and one to (3)mCherry, cytoplasm; apparent (effective) KD, to be taken as the upper limit since complexes of one colour are not seen.

Assay [4] deals with T4, Rvs161 (S. cerevisiae). The assay is described as follows: condition: 1000 nM (only Kdeff-values < 1000 nM are shown); fluorescence cross-correlation spectroscopy (FCCS); in the cytoplasm of living yeast cells; first-named protein green (3myeGFP or 1myeGFP; eGFP for Don1), second red (3mCherry); self-interaction in diploid strains with one allele of each colour; apparent or effective KD (Kdeff) from single-cell measurements; only Kdeff values < 1000 nM are shown; values for self-interactions are upper limits.

B1: End3 (natural protein, S. cerevisiae, UniProt P39013 1-349, looked up)
chain: MPKLEQFEIKKYWQIFSGLKPIENKVNHDQVLPILYNSKLDSSVLNKIWFLADIDDDDNLDFEEFVICMRLIFDMVNKNISSVPDELPDWLIPGSKVNLIKERKKRKQIENADLPPKKEIKVDWYMSPDDLNQYEKIYNSCAKLTDGTITFNELSTKLSTKFFNISKTDLNKVWSLINPQNLPSIDRDPTFYFIHCLRQRNDLGAEIPASLPNSLAEVCNKKQLSYDLRSSQPPTKRKEEANEVDNLRDNGQNSSSDSSGSNVLSNEDSIKQKYASLTDDQVANMREQLEGLLNYKKSEKTQGGSKLSKRINIRSITDDLDNIEQQVEVLENYLNNKRHELQALQAEIN
notes: End3, S. cerevisiae; also called End3-3myeGFP; End3-3mCherry; source: chromosomally tagged at the endogenous locus, in the cytoplasm of living S. cerevisiae cells
With B1, the binding entry with End3 (S. cerevisiae) [1], with Ede1 (S. cerevisiae) and in the assay with End3 (S. cerevisiae) [2] was “no binding” throughout.

B2: Rvs161 (natural protein, S. cerevisiae, UniProt P25343 1-265, looked up)
chain: MSWEGFKKAINRAGHSVIIKNVDKTIDKEYDMEERRYKVLQRAGEALQKEAKGFLDSLRAVTASQTTIAEVISNLYDDSKYVAGGGYNVGNYYLQCVQDFDSETVKQLDGPLRETVLDPITKFSTYFKEIEEAIKKRDHKKQDFDAAKAKVRRLVDKPAKDASKLPRAEKELSLAKDIFENLNNQLKTELPQLVSLRVPYFDPSFEALIKIQLRFCTDGYTRLAQIQQYLDQQSRDDYANGLLDTKIEELLGQMTSLDICALGIK
notes: Rvs161, amphiphysin-like protein, S. cerevisiae; also called Rvs161-1myeGFP; Rvs161-3mCherry; source: chromosomally tagged at the endogenous locus, in the cytoplasm of living S. cerevisiae cells
Consider B2, for which the binding entry with Rvs167 was “binds”; with Rvs161 (S. cerevisiae) [3] it was “no binding”; in the assay with Rvs161 (S. cerevisiae) [4] it was “no binding”.
